{"source": "PubChem BioAssay AID1224829, NIAID, 2016", "screen": "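Follow-up of TLR4-NF-kappaB regulators using six separate siRNAs for each gene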 (follow-up of hits)", "system": "mouse RAW264.7 G9 macrophage reporter cells", "reagent": "single siRNA against mouse genes, 100 nM", "duration": "2 days of siRNA knock-down, then 40 min of LPS before fixing", "challenge": "LPS (Salmonella minnesota R595) at 10 ng/ml", "detection": "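High-content images after 40 min LPS exposure; GFP-p65 nucleus to surrounding ring signal ratio, normalised to plate median and non-targeting control wells, expressed as z-score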", "scale": "p65 translocation z-score: higher = more nuclear NF-kappaB p65 after LPS", "hit rule": "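Active means the replicate-mean z-score lies beyond plus or minus 2, in either direction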", "calls": "active = changed p65 translocation (either direction); inactive = no clear change", "note": "The whole screen tested about 3,800 reagents; shown is a random part of them. 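Calls cover raised and lowered translocation; gene median uses one vendor's three siRNAs; qiagen siRNAs acted more weakly than ambion siRNAs.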 Reagents against one gene are numbered here. Not all columns of the deposit are shown. No sequences are given here."}
{"gene knocked down": "Itpkb (inositol 1,4,5-trisphosphate 3-kinase B)", "reagent": 1, "siRNA vendor or control pool": "qiagen single siRNA", "p65 translocation z-score, replicate mean": 1.46, "p65 translocation z-score, replicate 1": 0.726, "Outcome": "inactive"}
{"gene knocked down": "Itpkb (inositol 1,4,5-trisphosphate 3-kinase B)", "reagent": 2, "siRNA vendor or control pool": "qiagen single siRNA", "p65 translocation z-score, replicate mean": 1.78, "p65 translocation z-score, replicate 1": 2.59, "Outcome": "inactive"}
{"gene knocked down": "Itpkb (inositol 1,4,5-trisphosphate 3-kinase B)", "reagent": 3, "siRNA vendor or control pool": "qiagen single siRNA", "p65 translocation z-score, replicate mean": -4.24, "p65 translocation z-score, replicate 1": -4.24, "Outcome": "active"}
{"gene knocked down": "Ctcf (CCCTC-binding factor)", "reagent": 1, "siRNA vendor or control pool": "ambion single siRNA", "p65 translocation z-score, replicate mean": -1.62, "p65 translocation z-score, replicate 1": 0.578, "Outcome": "inactive"}
{"gene knocked down": "Ctcf (CCCTC-binding factor)", "reagent": 2, "siRNA vendor or control pool": "ambion single siRNA", "p65 translocation z-score, replicate mean": -2.81, "p65 translocation z-score, replicate 1": -2.94, "Outcome": "active"}
{"gene knocked down": "Ctcf (CCCTC-binding factor)", "reagent": 3, "siRNA vendor or control pool": "ambion single siRNA", "p65 translocation z-score, replicate mean": -7.46, "p65 translocation z-score, replicate 1": -6.7, "Outcome": "active"}
{"gene knocked down": "Ctcf (CCCTC-binding factor)", "reagent": 4, "siRNA vendor or control pool": "qiagen single siRNA", "p65 translocation z-score, replicate mean": 0.592, "p65 translocation z-score, replicate 1": 0.14, "Outcome": "inactive"}
{"gene knocked down": "Ctcf (CCCTC-binding factor)", "reagent": 5, "siRNA vendor or control pool": "qiagen single siRNA", "p65 translocation z-score, replicate mean": -3.37, "p65 translocation z-score, replicate 1": -2.85, "Outcome": "active"}
{"gene knocked down": "Ctcf (CCCTC-binding factor)", "reagent": 6, "siRNA vendor or control pool": "qiagen single siRNA", "p65 translocation z-score, replicate mean": -2.99, "p65 translocation z-score, replicate 1": -2.11, "Outcome": "active"}
{"gene knocked down": "Tigar (Trp53 induced glycolysis regulatory phosphatase)", "reagent": 1, "siRNA vendor or control pool": "ambion single siRNA", "p65 translocation z-score, replicate mean": -3.71, "p65 translocation z-score, replicate 1": -2.82, "Outcome": "active"}
{"gene knocked down": "Tigar (Trp53 induced glycolysis regulatory phosphatase)", "reagent": 2, "siRNA vendor or control pool": "ambion single siRNA", "p65 translocation z-score, replicate mean": -4.61, "p65 translocation z-score, replicate 1": -4.51, "Outcome": "active"}
{"gene knocked down": "Tigar (Trp53 induced glycolysis regulatory phosphatase)", "reagent": 3, "siRNA vendor or control pool": "ambion single siRNA", "p65 translocation z-score, replicate mean": -4.21, "p65 translocation z-score, replicate 1": -6.34, "Outcome": "active"}
{"gene knocked down": "Tigar (Trp53 induced glycolysis regulatory phosphatase)", "reagent": 4, "siRNA vendor or control pool": "qiagen single siRNA", "p65 translocation z-score, replicate mean": 3.91, "p65 translocation z-score, replicate 1": 4.42, "Outcome": "active"}
{"gene knocked down": "Tigar (Trp53 induced glycolysis regulatory phosphatase)", "reagent": 5, "siRNA vendor or control pool": "qiagen single siRNA", "p65 translocation z-score, replicate mean": 1.47, "p65 translocation z-score, replicate 1": 1.47, "Outcome": "inactive"}
{"gene knocked down": "Tigar (Trp53 induced glycolysis regulatory phosphatase)", "reagent": 6, "siRNA vendor or control pool": "qiagen single siRNA", "p65 translocation z-score, replicate mean": 0.783, "p65 translocation z-score, replicate 1": 0.621, "Outcome": "inactive"}
{"gene knocked down": "Mtmr3 (myotubularin related protein 3)", "reagent": 1, "siRNA vendor or control pool": "ambion single siRNA", "p65 translocation z-score, replicate mean": -0.694, "p65 translocation z-score, replicate 1": -0.145, "Outcome": "inactive"}
{"gene knocked down": "Mtmr3 (myotubularin related protein 3)", "reagent": 2, "siRNA vendor or control pool": "ambion single siRNA", "p65 translocation z-score, replicate mean": -1.19, "p65 translocation z-score, replicate 1": -1.51, "Outcome": "inactive"}
{"gene knocked down": "Mtmr3 (myotubularin related protein 3)", "reagent": 3, "siRNA vendor or control pool": "ambion single siRNA", "p65 translocation z-score, replicate mean": -9.78, "p65 translocation z-score, replicate 1": -9.78, "Outcome": "active"}
{"gene knocked down": "Mtmr3 (myotubularin related protein 3)", "reagent": 4, "siRNA vendor or control pool": "qiagen single siRNA", "p65 translocation z-score, replicate mean": -0.626, "p65 translocation z-score, replicate 1": -1.08, "Outcome": "inactive"}
{"gene knocked down": "Mtmr3 (myotubularin related protein 3)", "reagent": 5, "siRNA vendor or control pool": "qiagen single siRNA", "p65 translocation z-score, replicate mean": -0.266, "p65 translocation z-score, replicate 1": -0.155, "Outcome": "inactive"}
{"gene knocked down": "Mtmr3 (myotubularin related protein 3)", "reagent": 6, "siRNA vendor or control pool": "qiagen single siRNA", "p65 translocation z-score, replicate mean": -5.58, "p65 translocation z-score, replicate 1": -4.69, "Outcome": "active"}
{"gene knocked down": "Atp1a3 (ATPase, Na+/K+ transporting, alpha 3 polypeptide)", "reagent": 1, "siRNA vendor or control pool": "ambion single siRNA", "p65 translocation z-score, replicate mean": -2.99, "p65 translocation z-score, replicate 1": -3.32, "Outcome": "active"}
{"gene knocked down": "Atp1a3 (ATPase, Na+/K+ transporting, alpha 3 polypeptide)", "reagent": 2, "siRNA vendor or control pool": "ambion single siRNA", "p65 translocation z-score, replicate mean": -0.848, "p65 translocation z-score, replicate 1": -1.12, "Outcome": "inactive"}
{"gene knocked down": "Atp1a3 (ATPase, Na+/K+ transporting, alpha 3 polypeptide)", "reagent": 3, "siRNA vendor or control pool": "ambion single siRNA", "p65 translocation z-score, replicate mean": -8.85, "p65 translocation z-score, replicate 1": -10.6, "Outcome": "active"}
{"gene knocked down": "Atp1a3 (ATPase, Na+/K+ transporting, alpha 3 polypeptide)", "reagent": 4, "siRNA vendor or control pool": "qiagen single siRNA", "p65 translocation z-score, replicate mean": 1.73, "p65 translocation z-score, replicate 1": 1.63, "Outcome": "inactive"}
{"gene knocked down": "Atp1a3 (ATPase, Na+/K+ transporting, alpha 3 polypeptide)", "reagent": 5, "siRNA vendor or control pool": "qiagen single siRNA", "p65 translocation z-score, replicate mean": -3.51, "p65 translocation z-score, replicate 1": -3.85, "Outcome": "active"}
{"gene knocked down": "Atp1a3 (ATPase, Na+/K+ transporting, alpha 3 polypeptide)", "reagent": 6, "siRNA vendor or control pool": "qiagen single siRNA", "p65 translocation z-score, replicate mean": -3.17, "p65 translocation z-score, replicate 1": -2.36, "Outcome": "active"}
{"gene knocked down": "Onecut2 (one cut domain, family member 2)", "reagent": 1, "siRNA vendor or control pool": "ambion single siRNA", "p65 translocation z-score, replicate mean": -0.248, "p65 translocation z-score, replicate 1": -0.922, "Outcome": "inactive"}
{"gene knocked down": "Onecut2 (one cut domain, family member 2)", "reagent": 2, "siRNA vendor or control pool": "ambion single siRNA", "p65 translocation z-score, replicate mean": -2.89, "p65 translocation z-score, replicate 1": -2.51, "Outcome": "active"}
{"gene knocked down": "Onecut2 (one cut domain, family member 2)", "reagent": 3, "siRNA vendor or control pool": "ambion single siRNA", "p65 translocation z-score, replicate mean": -0.534, "p65 translocation z-score, replicate 1": -0.534, "Outcome": "inactive"}
{"gene knocked down": "Onecut2 (one cut domain, family member 2)", "reagent": 4, "siRNA vendor or control pool": "qiagen single siRNA", "p65 translocation z-score, replicate mean": 0.875, "p65 translocation z-score, replicate 1": -1.47, "Outcome": "inactive"}
{"gene knocked down": "Onecut2 (one cut domain, family member 2)", "reagent": 5, "siRNA vendor or control pool": "qiagen single siRNA", "p65 translocation z-score, replicate mean": 2.07, "p65 translocation z-score, replicate 1": 1.12, "Outcome": "active"}
{"gene knocked down": "Onecut2 (one cut domain, family member 2)", "reagent": 6, "siRNA vendor or control pool": "qiagen single siRNA", "p65 translocation z-score, replicate mean": -0.487, "p65 translocation z-score, replicate 1": -0.487, "Outcome": "inactive"}
{"gene knocked down": "Dusp13b (dual specificity phosphatase 13B)", "reagent": 1, "siRNA vendor or control pool": "ambion single siRNA", "p65 translocation z-score, replicate mean": -5.41, "p65 translocation z-score, replicate 1": -4.85, "Outcome": "active"}
{"gene knocked down": "Dusp13b (dual specificity phosphatase 13B)", "reagent": 2, "siRNA vendor or control pool": "ambion single siRNA", "p65 translocation z-score, replicate mean": -0.758, "p65 translocation z-score, replicate 1": -1.12, "Outcome": "inactive"}
{"gene knocked down": "Dusp13b (dual specificity phosphatase 13B)", "reagent": 3, "siRNA vendor or control pool": "ambion single siRNA", "p65 translocation z-score, replicate mean": -0.0925, "p65 translocation z-score, replicate 1": 0.863, "Outcome": "inactive"}
{"gene knocked down": "Dusp13b (dual specificity phosphatase 13B)", "reagent": 4, "siRNA vendor or control pool": "qiagen single siRNA", "p65 translocation z-score, replicate mean": 2.18, "p65 translocation z-score, replicate 1": 1.75, "Outcome": "active"}
{"gene knocked down": "Dusp13b (dual specificity phosphatase 13B)", "reagent": 5, "siRNA vendor or control pool": "qiagen single siRNA", "p65 translocation z-score, replicate mean": -0.984, "p65 translocation z-score, replicate 1": -1.57, "Outcome": "inactive"}
{"gene knocked down": "Dusp13b (dual specificity phosphatase 13B)", "reagent": 6, "siRNA vendor or control pool": "qiagen single siRNA", "p65 translocation z-score, replicate mean": -1.82, "p65 translocation z-score, replicate 1": -1.69, "Outcome": "inactive"}

2 entries already listed, ordered by “p65 translocation z-score, replicate 1”, low to high.
{"gene knocked down": "Itpkb (inositol 1,4,5-trisphosphate 3-kinase B)", "reagent": 3, "siRNA vendor or control pool": "qiagen single siRNA", "p65 translocation z-score, replicate mean": -4.24, "p65 translocation z-score, replicate 1": -4.24, "Outcome": "active"}
{"gene knocked down": "Ctcf (CCCTC-binding factor)", "reagent": 1, "siRNA vendor or control pool": "ambion single siRNA", "p65 translocation z-score, replicate mean": -1.62, "p65 translocation z-score, replicate 1": 0.578, "Outcome": "inactive"}
